Test results taken from patent publication US20170342169A1.
These are yes or no findings as the source states them, for the method shown. Some results given as binding are weak or reduced against the parent protein; the word gives no strength.

Protein sequences, listed by entry. Tags and fused reporters are not part of them. Lines headed by an entry give the natural chain unless they say otherwise; changes in a name come on top. Chains listed by the source or under a name are the forms on record and can include a tag or linker.
soluble form of the extracellular domain of cynomolgus (cyno) CD40 (Creative BioMart) (G7PG38, form named): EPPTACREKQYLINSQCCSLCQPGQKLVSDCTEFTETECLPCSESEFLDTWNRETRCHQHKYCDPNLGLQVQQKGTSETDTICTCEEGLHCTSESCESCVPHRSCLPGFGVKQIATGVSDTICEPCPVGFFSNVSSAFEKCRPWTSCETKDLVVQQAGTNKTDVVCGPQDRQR

T1: mouse 4-1BB (mouse) (UniProt P20334)
T1 sequence (looked up): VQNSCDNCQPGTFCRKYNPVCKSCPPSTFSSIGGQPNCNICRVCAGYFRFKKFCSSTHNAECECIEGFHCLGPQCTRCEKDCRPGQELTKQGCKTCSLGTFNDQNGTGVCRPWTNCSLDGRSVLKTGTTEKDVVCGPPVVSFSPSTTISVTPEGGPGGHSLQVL

B1: TABBY108-rIgG1 (antibody, V domains shown)
VH: EIQLQESGPGLVRPSQSLSLACSVTGYTITSAYDWSWIRKFPGNKMEWMGYIAYIGFTNSNPSLKSRISITRDTSKNQFFLQLKSVTTEDTATYYCARWSSYIPRYFDFWGPGTMVTVSS
VL: QAVLTQPNSVSTSLGSTVKLSCTITSGNIEDNFVHWYQHYEGRSPTTMIHNDDKRPDGVPDRFSGSIDSSSNSAFLTINNVEIEDEAIYFCHSYVSSINIFGGGTKLTVL
B2: huAb8-1 (antibody, human IgG1, V domains shown)
VH: EVQLVQSGAEVKKPGSSVKVSCKASGYTFTDYYINWVRQAPGQGLEWIGWIFPGSGSVYCNEQFKGRATLTVDRSTSTAYMELSSLRSEDTAVYFCASSLGKFAYWGQGTLVTVSS
VL: DIQMTQSPSSLSASVGDRVTITCKASQSVVTAVAWYQQKPGKSPKLLIYSASNRYTGVPSRFSGSGSGTDFTLTISSLQPEDFATYFCQQYSSYPYTFGGGTKVEIK

Columns and labels:
[1] = target: T1, mouse 4-1BB (mouse); experiment: SPR (Biacore)
[2] = target: soluble form of the extracellular domain of cynomolgus (cyno) CD40 (Creative BioMart) (cynomolgus) (UniProt G7PG38); experiment: SPR

| Binder | binding [1] | binding [2] |
| --- | --- | --- |
| B1 | binds |  |
| B2 |  | binds |
